PubChem BioAssay AID504764 | Drosophila RNAi Screening Center | 2011
Screen: 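Knock-downs that raise or lower a Notch target reporter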 (primary screen). Cells: Drosophila Kc167 cells. Knock-down reagent: long dsRNA against Drosophila genes. Time to read-out: about 5 days (4 days dsRNA, then 24 h after transfection). Challenge: transfection of constitutively active membrane-tethered Notch lacking the extracellular domain, read 24 h later. Read-out: 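Firefly luciferase from an E(spl)m3 reporter with active Notch, plus control-promoter and uninduced reporter wells for normalisation; unnormalised counts, duplicate wells a and b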. Direction: induced reporter light, run 1, well a and induced reporter light, run 1, well b: higher = more light from the Notch target reporter with active Notch; control promoter light, run 1, well a and control promoter light, run 1, well b: higher = more light from the viral control promoter (cell number, transfection, viability); uninduced reporter light, run 1, well a: higher = more light from the Notch target reporter without active Notch. Active means: 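Wells with low control signal or poorly matching duplicates excluded; duplicates averaged; per source plate, z beyond ±2 for induced/control log2 ratio or beyond ±1.8 for induced/uninduced marks a hit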. Meaning of the calls: active = modifier hit (raised or lowered Notch signal); inactive = not a hit.
In all, the deposit lists about 22,000 reagents; shown is a random part of those with a known target gene and a result. Of all reagents, 403 (1.9%) got an active call. 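Unnormalised raw counts per well; ratio z-scores behind the hit calls and whether each hit raises or lowers signal are not deposited.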 The record does not give: the amount of reagent.

Eig71Eg [DRSC11154]
- induced reporter light, run 1, well a: 1.69e5
- induced reporter light, run 1, well b: 1.23e5
- control promoter light, run 1, well a: 1.67e5
- control promoter light, run 1, well b: 1.43e5
- uninduced reporter light, run 1, well a: 5900
- activity call: inactive

CG32104 [DRSC10127]
- induced reporter light, run 1, well a: 68015
- induced reporter light, run 1, well b: 82955
- control promoter light, run 1, well a: 92045
- control promoter light, run 1, well b: 1.02e5
- uninduced reporter light, run 1, well a: 4855
- activity call: inactive

CG32104 [DRSC10128]
- induced reporter light, run 1, well a: 1.18e5
- induced reporter light, run 1, well b: 1.38e5
- control promoter light, run 1, well a: 1.79e5
- control promoter light, run 1, well b: 1.58e5
- uninduced reporter light, run 1, well a: 10780
- activity call: inactive

Sac1 [DRSC08622]
- induced reporter light, run 1, well a: 81460
- induced reporter light, run 1, well b: 98865
- control promoter light, run 1, well a: 1.24e5
- control promoter light, run 1, well b: 1.76e5
- uninduced reporter light, run 1, well a: 7105
- activity call: inactive

CG8765 [DRSC11041]
- induced reporter light, run 1, well a: 6010
- induced reporter light, run 1, well b: 4425
- control promoter light, run 1, well a: 5245
- control promoter light, run 1, well b: 3520
- uninduced reporter light, run 1, well a: 1278
- activity call: inactive

Nepl11 [DRSC12333]
- induced reporter light, run 1, well a: 1.18e5
- induced reporter light, run 1, well b: 1.01e5
- control promoter light, run 1, well a: 78870
- control promoter light, run 1, well b: 78360
- uninduced reporter light, run 1, well a: 8620
- activity call: inactive

loqs [DRSC02997]
- induced reporter light, run 1, well a: 1.16e5
- induced reporter light, run 1, well b: 1.52e5
- control promoter light, run 1, well a: 1.74e5
- control promoter light, run 1, well b: 1.90e5
- uninduced reporter light, run 1, well a: 11930
- activity call: inactive

mxc [DRSC17819]
- induced reporter light, run 1, well a: 52090
- induced reporter light, run 1, well b: 50600
- control promoter light, run 1, well a: 1.00e5
- control promoter light, run 1, well b: 1.05e5
- uninduced reporter light, run 1, well a: 5185
- activity call: inactive

salt [DRSC15427]
- induced reporter light, run 1, well a: 2.44e5
- induced reporter light, run 1, well b: 2.12e5
- control promoter light, run 1, well a: 3.04e5
- control promoter light, run 1, well b: 2.77e5
- uninduced reporter light, run 1, well a: 14605
- activity call: inactive

Polr3D [DRSC10485]
- induced reporter light, run 1, well a: 85915
- induced reporter light, run 1, well b: 89265
- control promoter light, run 1, well a: 59275
- control promoter light, run 1, well b: 58390
- uninduced reporter light, run 1, well a: 7260
- activity call: inactive

NSD [DRSC15691]
- induced reporter light, run 1, well a: 1.41e5
- induced reporter light, run 1, well b: 1.44e5
- control promoter light, run 1, well a: 1.85e5
- control promoter light, run 1, well b: 1.69e5
- uninduced reporter light, run 1, well a: 11600
- activity call: inactive

4 entries from above, sorted by “induced reporter light, run 1, well a”, high to low.
salt [DRSC15427]
- induced reporter light, run 1, well a: 2.44e5
- induced reporter light, run 1, well b: 2.12e5
- control promoter light, run 1, well a: 3.04e5
- control promoter light, run 1, well b: 2.77e5
- uninduced reporter light, run 1, well a: 14605
- activity call: inactive

NSD [DRSC15691]
- induced reporter light, run 1, well a: 1.41e5
- induced reporter light, run 1, well b: 1.44e5
- control promoter light, run 1, well a: 1.85e5
- control promoter light, run 1, well b: 1.69e5
- uninduced reporter light, run 1, well a: 11600
- activity call: inactive

Polr3D [DRSC10485]
- induced reporter light, run 1, well a: 85915
- induced reporter light, run 1, well b: 89265
- control promoter light, run 1, well a: 59275
- control promoter light, run 1, well b: 58390
- uninduced reporter light, run 1, well a: 7260
- activity call: inactive

mxc [DRSC17819]
- induced reporter light, run 1, well a: 52090
- induced reporter light, run 1, well b: 50600
- control promoter light, run 1, well a: 1.00e5
- control promoter light, run 1, well b: 1.05e5
- uninduced reporter light, run 1, well a: 5185
- activity call: inactive

Next reagents:
RpL10Aa [DRSC15518]
- induced reporter light, run 1, well a: 2.21e5
- induced reporter light, run 1, well b: 2.14e5
- control promoter light, run 1, well a: 2.12e5
- control promoter light, run 1, well b: 2.42e5
- uninduced reporter light, run 1, well a: 16495
- activity call: inactive

CG15629 [DRSC00464]
- induced reporter light, run 1, well a: 1.04e5
- induced reporter light, run 1, well b: 91695
- control promoter light, run 1, well a: 88285
- control promoter light, run 1, well b: 87410
- uninduced reporter light, run 1, well a: 6915
- activity call: inactive

KCNQ [DRSC06121]
- induced reporter light, run 1, well a: 1.31e5
- induced reporter light, run 1, well b: 1.20e5
- control promoter light, run 1, well a: 1.21e5
- control promoter light, run 1, well b: 1.25e5
- uninduced reporter light, run 1, well a: 15350
- activity call: inactive

KCNQ [DRSC06230]
- induced reporter light, run 1, well a: 1.51e5
- induced reporter light, run 1, well b: 1.26e5
- control promoter light, run 1, well a: 1.99e5
- control promoter light, run 1, well b: 1.63e5
- uninduced reporter light, run 1, well a: 13960
- activity call: inactive

CG8818 [DRSC07275]
- induced reporter light, run 1, well a: 74290
- induced reporter light, run 1, well b: 78700
- control promoter light, run 1, well a: 56510
- control promoter light, run 1, well b: 71935
- uninduced reporter light, run 1, well a: 5620
- activity call: inactive

CG31436 [DRSC14661]
- induced reporter light, run 1, well a: 1.12e5
- induced reporter light, run 1, well b: 1.23e5
- control promoter light, run 1, well a: 1.55e5
- control promoter light, run 1, well b: 1.57e5
- uninduced reporter light, run 1, well a: 10515
- activity call: inactive

rk [DRSC03602]
- induced reporter light, run 1, well a: 1.53e5
- induced reporter light, run 1, well b: 1.85e5
- control promoter light, run 1, well a: 1.63e5
- control promoter light, run 1, well b: 1.85e5
- uninduced reporter light, run 1, well a: 13120
- activity call: inactive

unc-13-4A [DRSC10201]
- induced reporter light, run 1, well a: 1.42e5
- induced reporter light, run 1, well b: 1.83e5
- control promoter light, run 1, well a: 2.16e5
- control promoter light, run 1, well b: 1.52e5
- uninduced reporter light, run 1, well a: 7475
- activity call: inactive

unc-13-4A [DRSC10202]
- induced reporter light, run 1, well a: 1.65e5
- induced reporter light, run 1, well b: 1.64e5
- control promoter light, run 1, well a: 1.44e5
- control promoter light, run 1, well b: 1.27e5
- uninduced reporter light, run 1, well a: 5210
- activity call: inactive

unc-13-4A [DRSC10203]
- induced reporter light, run 1, well a: 8380
- induced reporter light, run 1, well b: 10425
- control promoter light, run 1, well a: 8000
- control promoter light, run 1, well b: 8740
- uninduced reporter light, run 1, well a: 2410
- activity call: inactive

unc-13-4A [DRSC11013]
- induced reporter light, run 1, well a: 1.32e5
- induced reporter light, run 1, well b: 1.12e5
- control promoter light, run 1, well a: 1.33e5
- control promoter light, run 1, well b: 1.11e5
- uninduced reporter light, run 1, well a: 5335
- activity call: inactive

wdn [DRSC17095]
- induced reporter light, run 1, well a: 1.35e5
- induced reporter light, run 1, well b: 1.89e5
- control promoter light, run 1, well a: 2.88e5
- control promoter light, run 1, well b: 2.18e5
- uninduced reporter light, run 1, well a: 8815
- activity call: inactive

Aldh [DRSC02717]
- induced reporter light, run 1, well a: 1.11e5
- induced reporter light, run 1, well b: 1.59e5
- control promoter light, run 1, well a: 66270
- control promoter light, run 1, well b: 81150
- uninduced reporter light, run 1, well a: 15620
- activity call: inactive
